Data as given in PubChem BioAssay AID2685 (National Center for Advancing Translational Sciences (NCATS), 2010).
The list shows a part of the results. The main result of the screen is listed elsewhere. These columns were measured beside it and carry no call. Compounds called inactive in the main read-out are mostly missing here. Words in brackets tell the shape of the fitted curve; partial curves, single points and poor fits give uncertain potencies.

Test: qHTS Assay for Lipid Storage Modulators in Drosophila S3 Cells;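 for cell number change: cells counted by Cell Tracker Red CMTPX staining in the red channel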
Settings: BODIPY lipid droplet fluorescence, 18-24 h; for cell number change: measured here: cell count max response, cells fed with added oleic acid
Summary of the method: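 Laser-scanning cytometry quantifies lipid droplet accumulation (500–530 nm total intensity; droplet/cell object ratio) in oleic acid-fed (400 uM added) Drosophila S3 cells treated with a concentration series. 20 uM Triacsin C defined 100% inhibition.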

[1] = measured here: cell number channel AC50, cells fed with added oleic acid
[2] = measured here: lipid fluorescence (Fed channel) AC50, cells fed with added oleic acid

## Cc1cc(C)cc(C(=O)Nc2ccc3[nH]c(=O)[nH]c3c2)c1
  cell number change: -0.0963%
[1]
  AC50: 6.51 µM [falling, single point]
[2]
  AC50: 6.51 µM [falling, single point]

## CN(C)CCCNC(=O)COc1ccc(Br)cc1Cl
  cell number change: -3.45%
[2]
  AC50: 20.6 µM [rising, single point]

## CCC[N+](CC#Cc1ccccc1)(CCC)CC(=O)OC
  cell number change: -11.7%
[1]
  AC50: 1.16 µM [rising, full curve]
[2]
  AC50: 4.11 µM [rising, partial curve]

## Cc1nc2cc(O)ccc2n1C
  cell number change: 18%

## COc1ccc(NC(=O)c2cccn(CC=C(C)C)c2=O)cc1
  cell number change: 99.7%
[1]
  AC50: 0.58 µM [falling, partial curve, poor fit]

## CCCCC(O)CN1CCC(c2ccccc2)CC1 (configuration not stated)
  cell number change: -69.7%
[1]
  AC50: 5.8 µM [falling, full curve]
[2]
  AC50: 6.51 µM [falling, single point]

## Cn1c(SC2=CS(=O)(=O)c3ccccc32)nc2ccccc21
[2]
  AC50: 29.1 µM [falling, single point]

## Cn1c(C(=O)NCC2CCCO2)cc2c(=O)n(C)c3ccccc3c21 (configuration not stated)
[1]
  AC50: 0.517 µM [rising, full curve]
[2]
  AC50: 1.3 µM [rising, full curve]

## COc1cc(/C=N/Nc2nc(Nc3ccccc3)nc(N3CCCCC3)n2)ccc1OCC(=O)O
[1]
  AC50: 0.82 µM [falling, single point]
[2]
  AC50: 0.58 µM [falling, single point]

## C=CCSc1nnc(C)c(/C=C/Nc2ccc(Cl)cc2)n1
  cell number change: 12.1%

## Cc1cc(C)cc(NC(=O)CSc2nnc(NC(=O)C3CC3)s2)c1
  cell number change: 21.8%

## CCCNS(=O)(=O)c1cc(CN2C(=O)c3cccnc3C2=O)ccc1OC
  cell number change: -16.9%
[2]
  AC50: 6.51 µM [rising, single point]

## CCN1C(=NCC(C)C)N[C@@H](c2cccc(C(F)(F)F)c2)C(C(=O)OC)=C1C
  cell number change: 18.6%
[2]
  AC50: 2.59 µM [rising, partial curve, poor fit]

## CN(CCCC(=O)O)S(=O)(=O)c1ccc2c(c1)C(=O)c1cc(S(=O)(=O)N(C)CCCC(=O)O)ccc1-2
  cell number change: 24.9%
[2]
  AC50: 0.58 µM [rising, single point]

## CCC1(CC)NC(=O)N(CC(=O)OCC(=O)Nc2sccc2C#N)C1=O
  cell number change: -11%
[1]
  AC50: 4.11 µM [rising, single point]

## O=S(=O)(NCC(Nc1ccc(Cl)cc1)c1ccccc1)c1ccc(Cl)cc1 (configuration not stated)
  cell number change: -67.4%
[1]
  AC50: 18.4 µM [falling, partial curve]
[2]
  AC50: 18.4 µM [falling, partial curve]
